Experimental data: PubChem BioAssay AID1259405 (NCATS, 2018)
Here is an unselected part of about 50,000 reagents. About 4,000 of them (8%) were called active. 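Mouse siRNA library applied to hamster cells; one well for each siRNA.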 Reagents against one gene are numbered here. No sequences are given here.

Aim: 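Silenced genes that increase secreted GFP made by CHO cells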 (primary screen)
Cell system: Chinese hamster CHO-K1 ovary cells with stable secreted eGFP expression
Knock-down reagent: single siRNA against mouse genes, 0.8 pmol siRNA per well (2 µl of 400 nM stock)
Time to read-out: 3 days
Read-out: 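Per-well intracellular GFP measured by laser scanning cytometry, plus viability from ATP luminescence, each relative to plate median of non-targeting control wells, in %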
Reading the numbers: GFP, % of control: higher = more GFP per well, higher productivity; viability (ATP), % of control: higher = more viable cells (more ATP)
Hit rule: 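Called active when intracellular GFP, relative to negative control, is at or above 120%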

no.	gene	siRNA no.	GFP, % of control	viability (ATP), % of control	call
1	Tprkb (Tp53rk binding protein)	1	123	65.2	active
2	Tprkb (Tp53rk binding protein)	2	14	21.1	inactive
3	Tprkb (Tp53rk binding protein)	3	85.8	108	inactive
4	Emc7 (ER membrane protein complex subunit 7)	1	72.8	85.8	inactive
5	Emc7 (ER membrane protein complex subunit 7)	2	96.2	108	inactive
6	Emc7 (ER membrane protein complex subunit 7)	3	87.6	93.1	inactive
7	Mcpt1 (mast cell protease 1)	1	87.1	107	inactive
8	Mcpt1 (mast cell protease 1)	2	92.2	51.8	inactive
9	Mcpt1 (mast cell protease 1)	3	92.6	86.4	inactive
10	Ddi2 (DNA-damage inducible protein 2)	1	78	76.6	inactive
11	Ddi2 (DNA-damage inducible protein 2)	2	70.6	67.2	inactive
12	Ddi2 (DNA-damage inducible protein 2)	3	73.8	54.3	inactive
13	Dynll1 (dynein light chain LC8-type 1)	1	82.1	81.2	inactive
14	Dynll1 (dynein light chain LC8-type 1)	2	140	79.7	active
15	Dynll1 (dynein light chain LC8-type 1)	3	66.8	69.7	inactive
16	Shc4 (SHC (Src homology 2 domain containing) family, member 4)	1	63.8	51.8	inactive
17	Shc4 (SHC (Src homology 2 domain containing) family, member 4)	2	58.1	50.3	inactive
18	Shc4 (SHC (Src homology 2 domain containing) family, member 4)	3	108	67.8	inactive
19	Jade1 (jade family PHD finger 1)	1	73.4	53.8	inactive
20	Jade1 (jade family PHD finger 1)	2	67	79.8	inactive
21	Jade1 (jade family PHD finger 1)	3	72.9	79.8	inactive
22	Or9i16 (olfactory receptor family 9 subfamily I member 16)	1	95.6	106	inactive
23	Or9i16 (olfactory receptor family 9 subfamily I member 16)	2	81.9	86.5	inactive
24	Or9i16 (olfactory receptor family 9 subfamily I member 16)	3	97.6	97	inactive
25	Ercc6	1	101	96.8	inactive
26	Ercc6	2	57.4	50.9	inactive
27	Ercc6	3	54.9	76.4	inactive
28	Or1n1 (olfactory receptor family 1 subfamily N member 1)	1	79.3	52.8	inactive
29	Or1n1 (olfactory receptor family 1 subfamily N member 1)	2	75.5	75.3	inactive
30	Or1n1 (olfactory receptor family 1 subfamily N member 1)	3	58.5	116	inactive
31	Pde4b (phosphodiesterase 4B, cAMP specific)	1	45.4	37.8	inactive
32	Pde4b (phosphodiesterase 4B, cAMP specific)	2	50.9	43	inactive
33	Pde4b (phosphodiesterase 4B, cAMP specific)	3	84.8	91.7	inactive
34	Ormdl2 (ORM1-like 2 (S. cerevisiae))	1	76.5	79.9	inactive
35	Ormdl2 (ORM1-like 2 (S. cerevisiae))	2	134	60.8	active
36	Ormdl2 (ORM1-like 2 (S. cerevisiae))	3	56.8	67.6	inactive
37	Aak1 (AP2 associated kinase 1)	1	48.7	52.2	inactive
38	Kcnj1 (potassium inwardly-rectifying channel, subfamily J, member 1)	1	112	91.4	inactive
39	Kcnj1 (potassium inwardly-rectifying channel, subfamily J, member 1)	2	67.2	79.1	inactive
40	Kcnj1 (potassium inwardly-rectifying channel, subfamily J, member 1)	3	73.8	88.4	inactive
41	Tesc (tescalcin)	1	54.4	55.4	inactive
42	Tesc (tescalcin)	2	44.1	39.5	inactive
43	Tesc (tescalcin)	3	69.5	83.4	inactive
44	Fam117a (family with sequence similarity 117, member A)	1	68.8	73.5	inactive
45	Fam117a (family with sequence similarity 117, member A)	2	92.5	82.1	inactive
46	Fam117a (family with sequence similarity 117, member A)	3	132	108	active
47	Myo1b (myosin IB)	1	23.4	31.5	inactive
48	Myo1b (myosin IB)	2	73.9	69.4	inactive
49	Ldlrad4 (low density lipoprotein receptor class A domain containing 4)	1	85.3	91.8	inactive
50	Ldlrad4 (low density lipoprotein receptor class A domain containing 4)	2	80.9	62	inactive
51	Ldlrad4 (low density lipoprotein receptor class A domain containing 4)	3	68	34.3	inactive
52	Setd6 (SET domain containing 6)	1	74.6	87	inactive
53	Setd6 (SET domain containing 6)	2	67.2	78.8	inactive
54	Setd6 (SET domain containing 6)	3	74.7	56.3	inactive
55	Rrp7a (ribosomal RNA processing 7 homolog A)	1	94.3	77.5	inactive
56	Rrp7a (ribosomal RNA processing 7 homolog A)	2	150	67.5	active
57	Rrp7a (ribosomal RNA processing 7 homolog A)	3	135	70.1	active
58	Mbd3l1 (methyl-CpG binding domain protein 3-like 1)	1	46	37.1	inactive
59	Mbd3l1 (methyl-CpG binding domain protein 3-like 1)	2	61.4	74.2	inactive
60	Mbd3l1 (methyl-CpG binding domain protein 3-like 1)	3	55.4	60.5	inactive
61	Mios (meiosis regulator for oocyte development)	1	56.8	64.7	inactive
62	Mios (meiosis regulator for oocyte development)	2	64.5	81.1	inactive
63	Mios (meiosis regulator for oocyte development)	3	108	122	inactive
64	Rnf114 (ring finger protein 114)	1	112	101	inactive
65	Rnf114 (ring finger protein 114)	2	34.8	33.8	inactive
66	Rnf114 (ring finger protein 114)	3	93.5	78.4	inactive
67	Nedd4	1	74.8	94.4	inactive
68	Nedd4	2	59.4	78.1	inactive
69	Nedd4	3	59.1	67.5	inactive
70	Pla2g4f (phospholipase A2, group IVF)	1	83.4	58	inactive
71	Pla2g4f (phospholipase A2, group IVF)	2	27.7	31	inactive
72	Pla2g4f (phospholipase A2, group IVF)	3	156	90.9	active
73	Rtl1 (retrotransposon Gaglike 1)	1	66.7	43.7	inactive
74	Rtl1 (retrotransposon Gaglike 1)	2	57.2	64.1	inactive
75	Rtl1 (retrotransposon Gaglike 1)	3	75.6	68.2	inactive
76	Kcnc1	1	65.6	44.4	inactive
77	Kcnc1	2	116	95.4	inactive
78	Kcnc1	3	93.3	65.6	inactive
79	Tsc1 (TSC complex subunit 1)	1	53.9	62.5	inactive
80	Tsc1 (TSC complex subunit 1)	2	53.1	74.9	inactive
81	Tsc1 (TSC complex subunit 1)	3	136	114	active
82	Mrap (melanocortin 2 receptor accessory protein)	1	66.6	80.2	inactive
83	Mrap (melanocortin 2 receptor accessory protein)	2	92.3	96.7	inactive
84	Mrap (melanocortin 2 receptor accessory protein)	3	86.7	75.7	inactive

Laid out differently: 7 of the entries above
Jade1 (jade family PHD finger 1) #3: GFP, % of control = 72.9; viability (ATP), % of control = 79.8; call = inactive
Or9i16 (olfactory receptor family 9 subfamily I member 16) #1: GFP, % of control = 95.6; viability (ATP), % of control = 106; call = inactive
Or9i16 (olfactory receptor family 9 subfamily I member 16) #2: GFP, % of control = 81.9; viability (ATP), % of control = 86.5; call = inactive
Or9i16 (olfactory receptor family 9 subfamily I member 16) #3: GFP, % of control = 97.6; viability (ATP), % of control = 97; call = inactive
Ercc6 #1: GFP, % of control = 101; viability (ATP), % of control = 96.8; call = inactive
Ercc6 #2: GFP, % of control = 57.4; viability (ATP), % of control = 50.9; call = inactive
Ercc6 #3: GFP, % of control = 54.9; viability (ATP), % of control = 76.4; call = inactive
